{
  "source": "patent US7041463B2",
  "about": "“Orthologues of human receptors and methods of use” (Pharmacopeia Drug Discovery, Inc., priority 2000, dated 2006)",
  "tested_on": "B1 receptors (species homologues)",
  "test": "[3H]-des-Arg10-kallidin binding across all cloned B1 orthologues",
  "conditions": "0.6 nM or 1.5 nM (rat) [3H]-dAKd",
  "method": "Membrane preparations for use in accordance with the methods of the present invention were generated as follows. 293E cells expressing B1 receptors were harvested and pelleted. Cells were washed once with PBS and once with a membrane buffer (for example, 10 mM HEPES pH 7.5, 1 μM phosphoramidon, 3 μM amastatin, 1 μM captopril, 2 μM dithiothreitol (DTT)). Cells were resuspended in membrane buffer and Dounce homogenized on ice 35 times. The membranes were collected by centrifugation at 15,000×g for 30 min. at 4° C. and resuspended in membrane buffer containing 0.2% bovine serum albumin (BSA) at a final concentration of approximately 5×10^7 cell equivalents per ml. Aliquots were flash frozen and stored at −80° C. Frozen aliquots were subsequently thawed, diluted, and sonicated on ice using a Branson Sonifier® 250 (4×5 sec, 40% output).\nPrior to use in a binding assay, a membrane preparation is “calibrated” as described below to determine the amount of membrane preparation to be used. […]\nThe method of the present invention employs a binding assay such as the one described below. […] 50 μl of scintillation fluid was added to each well and plates were counted in a Wallac Microbeta® TriLux for 10 min. per well.",
  "note": "At least one compound was matched to its structure with a doubt left. Ends that are not written are not given here.",
  "data": [
    {"sequence": "RPPGFSPFR [BK, Bradykinin]", "values": [
      {"measurement": "affinity (K1) at all B1 species homologues, in words", "value": "inactive"}
    ]}
  ]
}
